The list shows a part of the results.

This experiment relates to T1, CTL2-GFP (C. trachomatis L2/434/Bu, GFP-expressing).
T1 construct: L2/434/Bu, GFP-expressing
On the set-up: species or system HeLa; Intracellular C. trachomatis growth in HeLa cells, bulk GFP fluorescence relative to DMSO. The conditions noted are these: bulk GFP, single well; 28.5 h, 10 µM; inhibitor.
Regarding `O=CN1CCc2c([nH]c3cc(F)ccc23)C12CCN(CCc1cccs1)CC2` [CBK040312], the “% of control remaining” value is recorded as 137.715%.

For `CC(=O)c1cc(-c2cccnc2)cs1` [CBK017637], the “% of control remaining” value turned out to be 18.1316%.

As for `Cn1c(=O)n(CC#N)c2ccccc21` [CBK025636], the “% of control remaining” value is on record as 138.985%.

On to `O=C(NCCc1c[nH]c2ccc(Cl)cc12)c1ccoc1` [CBK159782], for which the “% of control remaining” value amounted to 138.651%.

In the case of `CCC1(C)CC(C(CCN)c2ccc(C)cc2)CCO1` (centres unmarked) [CBK027350], the “% of control remaining” value worked out at 126.067%.

As to `CCOc1cc(/C=C2/SC(=S)N(c3cccc(C(F)(F)F)c3)C2=O)ccc1OCC(=O)O` [CBK264965], the “% of control remaining” value stood at 120.435%.

`Cc1nc(-c2ccccc2)nc2c1c(N)nn2CC(=O)O` [CBK287109]: the “% of control remaining” value was 114.252%.

As for `CCCn1nc(C)c(-c2cncn2CC(C)N2CCC(C)CC2)c1C` (centres unmarked) [CBK281791], the “% of control remaining” value stood at 144.098%.

As for `COc1cccc(CNC(=O)c2cc3c(nc2N)CCN(Cc2cccc(C)c2OC)C3)c1` [CBK285682], the “% of control remaining” value came out at 141.13%.

Take `O=C1CC2(CCN(C(=O)c3ccccn3)CC2)Oc2ccc(Br)cc21` [CBK156443]: the “% of control remaining” value came out at 129.649%.

Turning to `NCCSC1CC(=O)N(Cc2ccc(F)cc2)C1=O` (centres unmarked) [CBK269025C], the “% of control remaining” value is 77.646%.

Regarding `Cc1ccc(OC2(C(=O)N3CCCC3C(F)(F)F)CCNCC2)cc1` (centres unmarked) [CBK307226], the “% of control remaining” value turned out to be 140.731%.

In the case of `CCC1CCCCN1C(=O)C1CCCCC1` (centres unmarked) [CBK084528], the “% of control remaining” value amounted to 151.875%.

On to `O=C(CNC1CCN(Cc2ccccc2)CC1)Nc1ccc(Cl)cc1C(=O)c1ccccc1Cl` [CBK074770], for which the “% of control remaining” value amounted to 61.6108%.

For the compound `O=C(Cn1cccnc1=O)NCc1cccnc1OCC(F)(F)F` [CBK305949], the “% of control remaining” value was determined as 98.5993%.

Consider `COCCNCc1cccc(OCc2ccccc2)c1` [CBK269864C], for which the “% of control remaining” value is given as 135.233%.

On to `CN(C)CCn1c([C@@H]2CCCO2)cc2cccnc21` [CBK282288], for which the “% of control remaining” value amounted to 117.318%.

`O=C(Nc1ccc(F)cc1)c1c(NS(=O)(=O)c2ccc(Oc3ccccc3)cc2)sc2c1CCCC2` [CBK028653]: the “% of control remaining” value was 122.553%.

In the case of `COc1ccc(C2Nc3ccccc3C(=O)N2Cc2ccccc2)cc1COc1ccc([N+](=O)[O-])cc1` (centres unmarked) [CBK033690], the “% of control remaining” value came to 112.495%.

As for `Cn1cc([C@H]2C[C@@H](O)[C@@H](CO)O2)c(=O)[nH]c1=O` [CBK201171], the “% of control remaining” value came out at 142.52%.

With `C=C(C)Cn1c(SCC(C)C)nnc1-c1ccccc1Cl` [CBK200078], the “% of control remaining” value came to 115.6%.

On to `C=CCn1c2ccccc2c2nnc(SCc3ccc([N+](=O)[O-])cc3)nc21` [CBK265630], for which the “% of control remaining” value came to 101.373%.

With `O=C(CSc1nnc(-c2ccncc2)s1)NNC(=O)c1cccs1` [CBK269600], the “% of control remaining” value is 175.338%.

For the compound `CC(=O)NCCNC(=O)c1cc(-c2cccc(S(C)(=O)=O)c2)cnc1NCC1CC1` [CBK076351], the “% of control remaining” value was 100%.

Consider `O=C(CCN1C(=O)c2cccc([N+](=O)[O-])c2C1=O)Nc1ccccc1Cl` [CBK263121], for which the “% of control remaining” value stood at 112.528%.

On to `Cc1ccc(S(=O)(=O)Cc2cccc(C(=O)N3CCN(Cc4ccccc4)CC3)c2)cc1` [CBK269596], for which the “% of control remaining” value is 141.028%.

`Cc1ccn(CCC(=O)NC(Cc2ccsc2)c2nccs2)n1` (centres unmarked) [CBK285137]: the “% of control remaining” value is recorded as 100.566%.

In the case of `Cc1ccc(N(Cc2cc3ccccc3nc2O)C(=O)c2cccnc2)cc1` [CBK265442], the “% of control remaining” value is reported as 100%.

Consider `CN(C)CCN(Cc1ccccc1)Cc1ccc([N+](=O)[O-])cc1` [CBK261929], for which the “% of control remaining” value worked out at 100%.

Take `CCOc1ccc2c(c1)CN(CC(=O)Nc1cc(C)no1)CC2` [CBK305993]: the “% of control remaining” value came to 105.847%.

`Cc1cn(CC(=O)N2CCN(C(=O)c3ccco3)CC2)c(=O)[nH]c1=O` [CBK144472]: the “% of control remaining” value turned out to be 125.987%.

Regarding `O=C1c2cccc3cccc(c23)C(=O)N1CCN1CCN(CC(O)COc2ccc3c(c2)OCO3)CC1` (centres unmarked) [CBK074849C], the “% of control remaining” value worked out at 100%.

As for `COc1ccc([N+](=O)[O-])cc1COc1ccc2ccc(=O)oc2c1` [CBK264597], the “% of control remaining” value was determined as 123.065%.

With `Cc1nc2c(ccc3nc(NC(=O)c4ccccc4)sc32)s1` [CBK287560], the “% of control remaining” value was determined as 195.561%.

Turning to `COc1ccc(N(CC(=O)O)S(=O)(=O)c2ccccc2)c(OC)c1` [CBK262415], the “% of control remaining” value worked out at 113.818%.

As to `Cc1noc(C)c1Cc1ccc(C(=O)Nc2nc3ccccc3n2C)o1` [CBK299839], the “% of control remaining” value is reported as 133.543%.

Take `O=C1COc2ccccc2C/C=C/C[C@H]2CN(C(=O)CN3CCN(CCO)CC3)CC[C@H]2N1` [CBK292146]: the “% of control remaining” value is 97.3713%.

With `Cc1nc(CN2CCC3(CC2)CN(S(C)(=O)=O)c2ccccc23)cs1` [CBK126687], the “% of control remaining” value stood at 104.018%.

Turning to `Cc1noc(C)c1S(=O)(=O)N1CCOCC1c1cccc(F)c1` (centres unmarked) [CBK304171], the “% of control remaining” value is 124.067%.

As for `COc1cc(CN2CCC3(CC2)CN(C(=O)CO)c2ccccc23)cc(OC)c1OC` [CBK131494], the “% of control remaining” value amounted to 89.6813%.

On to `O=C(O)C[C@]1(C(=O)Nc2ccc(F)cc2)CC(/C=C/c2ccccc2)=NO1` [CBK286608], for which the “% of control remaining” value worked out at 146.661%.

In the case of `Cn1ncnc1COc1ccc(S(=O)(=O)NC2CCCC2)cc1` [CBK306305], the “% of control remaining” value was 122.668%.

Regarding `CC(C)(C)c1ccc(-c2cnc3ncccc3c2N)cc1` [CBK083684], the “% of control remaining” value is 150.877%.

With `O=C(O)c1cccc(CSc2nnc(Cc3ccccc3)[nH]2)c1` [CBK268029], the “% of control remaining” value was 122.19%.

On to `O=C(NCC1CCCO1)c1sc2ccccc2c1Cl` (centres unmarked) [CBK058604], for which the “% of control remaining” value came to 114.174%.

Turning to `CC(C)(C)CC(=O)N1C[C@@H]2C[C@H](C1)c1ccc(NS(=O)(=O)c3cccs3)c(=O)n1C2` [CBK288708], the “% of control remaining” value was determined as 116.821%.

On to `O=C(NC(Cc1cccs1)c1nccs1)C1CCOC1` (centres unmarked) [CBK285054], for which the “% of control remaining” value is listed as 155.836%.

Take `CCOC(=O)C(C)NC(=O)c1ccc2nc(C)sc2c1` (centres unmarked) [CBK282508]: the “% of control remaining” value amounted to 121.514%.

For the compound `CSCCC(NC(=O)c1ccc(S(=O)(=O)N2CC(C)OC(C)C2)cc1)C(=O)O` (centres unmarked) [CBK297101], the “% of control remaining” value is given as 116.217%.

Consider `FC(F)(F)c1csc(Nc2ccc(Cl)c(Cl)c2)n1` [CBK019093], for which the “% of control remaining” value was found to be 53.7174%.
